Reference: PubChem BioAssay AID624291 (National Center for Advancing Translational Sciences (NCATS), 2012)
Among all 350,000 compounds or so, about 220 (0.063%) were called active. This list was built around the results that the source calls inconclusive (neither active nor inactive); the mix of calls is not that of the screen. The call rests on the fitted dose curve; in most records, active means well fitted activation curve with a large enough effect; inconclusive means small, poorly fitted or top-dose-only effect; inactive means no such curve, though single readings can be large or run the other way. Potencies beside an inconclusive call are fits to weak or partial responses and may not hold up.
Potency means the concentration at half of the fitted maximal effect.

Test: qHTS for Activators of Integrin-Mediated Alleviation for Muscular Dystrophy; further: nearly all actives have a fitted effect of over 60% in size;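 on activation: 100% = response of the positive control SU9516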
Conditions: alpha7betagal myoblasts, beta-gal FDG fluorescence, 48 h; activation: at 38.3 µM (top of the series)
Method in brief: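 alpha7betagal+/- myoblasts (passage 13, 250/well) treated 48 h at 37C with compounds at 1:260 dilution of DMSO stock. Lysed, then beta-galactosidase activity read as FDG fluorescence (ex 480/em 540) after 30 min, with pre-read for autofluorescence.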
With `CC(C)c1cc(CNC(=O)c2cc(COc3cncc(Cl)c3)on2)on1` the Potency was inconclusive: 8.91 µM [activator, partial curve, poor fit]. With `COc1ccc(CCNC(=O)C2=CC=CN3CCS(=O)(=O)N=C23)cc1` the Potency was inconclusive: 5.01 µM [activator, single point]. For `O=C(Nc1nnc(-c2ccncc2)s1)Nc1ccccc1F`, the Potency was inconclusive: 11.2 µM [activator, partial curve, poor fit]. In the case of `NC(=O)Cc1ncc(C(F)(F)F)cc1Cl`, the Potency is reported as inconclusive: 2.82 µM [activator, single point]. For `Cc1cccc(C(=O)NCCC(=O)Nc2ccc(C)c(F)c2)c1`, the Potency was inconclusive: 11.2 µM [activator, single point]. For `O=C(NCCc1cccc(F)c1)C1CC(O)CN1C(=O)Nc1ccccc1` (configuration not stated), the Potency was “inactive”. With `Cc1nc(SCC(=O)NCc2ccco2)nc(C)c1C` the Potency was “inactive”. With `CCOc1ccccc1NC(=O)CNC(=O)c1nn(-c2ccc(OC)c(OC)c2)c(=O)c2ccccc12` the Potency was inconclusive: 14.1 µM [activator, single point]. In the case of `N#Cc1ccc(OCC(=O)Nc2cc(S(=O)(=O)N3CCOCC3)ccc2N2CCCC2)cc1`, the Potency is reported as inconclusive: 12.6 µM [activator, single point]. For `O=C(CN1C(=O)c2ccccc2S1(=O)=O)Nc1ccc([N+](=O)[O-])cc1`, the Potency was “inactive”. For `O=C(CSc1ccc([N+](=O)[O-])cn1)Nc1ccc(N2CCOCC2)c(Cl)c1`, the Potency was inconclusive: 2.82 µM [activator, partial curve, poor fit]. For `Cc1cc(C)n(-c2ccc(Cl)c(C(=O)NCc3ccccc3)n2)n1`, the Potency was inconclusive: 5.01 µM [activator, single point]. For `COc1ccc(/C=N/NC(=O)c2ccc(Br)cc2)c(OC)c1`, the Potency was “inactive”. In the case of `CCCCN(C)CCCNC(=O)c1cn(CC)c2ccc(S(=O)(=O)N3CCOCC3)cc2c1=O`, the Potency is reported as inconclusive: 2.51 µM [activator, partial curve, poor fit]. For `O=[N+]([O-])c1ccccc1Nc1ccccc1`, the Potency was “inactive”. With `CCOCCCNc1ccc(-c2ccccc2)nn1` the activation was inactive: -0.449% [at 7.66 µM]. In the case of `O=S(Cc1ccc(Br)cc1)Cc1nnc(SCc2ccc(Br)cc2)n1-c1ccccc1` (configuration not stated), the Potency is reported as inconclusive: 2.24 µM [activator, partial curve, poor fit]. For `CSc1ccc(/C=C/C(=O)c2ccc(O)cc2)cc1`, the Potency was “inactive”. With `COc1ccc(-c2cc(=O)c3cc(C)ccc3[nH]2)cc1` the Potency was “inactive”. For `O=[N+]([O-])c1ccc(Cl)c(C[n+]2cccc3ccccc32)c1`, the Potency was inconclusive: 1.78 µM [activator, partial curve, poor fit]. In the case of `N#Cc1ccc(CN2C=NS(=O)(=O)c3ccccc32)cc1`, the Potency is reported as inconclusive: 1.41 µM [activator, full curve]. In the case of `O=C1N(Cc2cccnc2)C[C@@H]2C[C@@H](c3cccc(Oc4ccccc4)c3)N3CCC[C@@]123`, the Potency is reported as inconclusive: 20 µM [activator, single point]. For `O=C(Nc1ccc(Cl)cc1)Nc1ccc2c(c1)N1CCN=C1S2`, the Potency was inconclusive: 5.01 µM [activator, single point]. For `CC(=O)c1ccc(NC(=S)Nc2ccc3cn[nH]c3c2)cc1`, the Potency was “inactive”. For `COc1ccc(S(=O)(=O)NC2(C(F)(F)F)N=C(c3ccccc3)NC2=O)cc1` (configuration not stated), the Potency was “inactive”. With `CCCc1nnc(SCC(=O)N2CCCCC2C)n1CC` (configuration not stated) the Potency was inconclusive: 6.31 µM [activator, partial curve]. In the case of `CCN(CC(=O)Nc1ccc(NC(C)=O)cc1)C(=O)/C=C/c1c(C)nn(-c2ccc(F)cc2)c1C`, the Potency is reported as “inactive”. With `O=C(CN1CCCCC1)NC(=O)NC1CCCCC1` the Potency was inconclusive: 1.41 µM [activator, partial curve, poor fit]. For `COc1ccc2ccccc2c1/C=N/NC(=O)c1nnn(-c2nonc2N)c1C(C)C`, the Potency was “inactive”. In the case of `CC(C)OCC1Cn2c(nc3c2c(=O)n(C)c(=O)n3C)O1` (configuration not stated), the Potency is reported as inconclusive: 28.2 µM [activator, single point]. For `CC(NC(=O)Cc1ccsc1)c1ccc(Cl)cc1Cl` (configuration not stated), the Potency was inconclusive: 5.01 µM [activator, partial curve, poor fit]. For `CCN(CC(=O)Nc1ccccc1C(F)(F)F)C(=O)c1cc(-c2cccs2)nn1-c1ccccc1`, the Potency was inconclusive: 1.78 µM [activator, partial curve, poor fit]. For `COc1ccccc1C(=O)NNC(=O)c1sccc1-n1cccc1`, the Potency was inconclusive: 15.8 µM [activator, single point]. For `Cc1c(C)c2cc3c(C)coc3cc2oc1=O`, the Potency was inconclusive: 2 µM [activator, partial curve, poor fit]. For `CC(C)CC(NC(=O)C(NC(=O)C1OC2OC(C)(C)OC2C2OC(C)(C)OC12)C(C)C)C(=O)O` (configuration not stated), the Potency was inconclusive: 3.16 µM [activator, single point]. In the case of `CC(=O)N1CCN(C(=O)c2ccc(S(=O)(=O)Nc3ccccc3F)cc2)CC1`, the Potency is reported as inconclusive: 11.2 µM [activator, single point]. In the case of `O=C(Nc1nnc(SCC(=O)N2CCCCC2)s1)c1c(F)cccc1F`, the Potency is reported as inconclusive: 22.4 µM [activator, single point]. For `Cc1ccc(S(=O)(=O)N(C)CC(=O)Nc2nnc(CC(C)C)s2)cc1`, the Potency was inconclusive: 5.01 µM [activator, single point]. For `COc1ccc(N2CCN(C(=O)C3CCN(S(=O)(=O)c4cccs4)CC3)CC2)cc1`, the Potency was inconclusive: 5.01 µM [activator, single point]. With `Cc1c(N2C(=O)c3ccccc3C2(O)c2ccccc2)c(=O)n(-c2ccccc2)n1C` (configuration not stated) the Potency was inconclusive: 5.01 µM [activator, single point]. For `COCC(=O)Nc1cc(C)cn(Cc2c(F)cccc2Cl)c1=O`, the Potency was inconclusive: 1.26 µM [activator, partial curve, poor fit]. With `CCc1sc(C(=O)Nc2nccs2)cc1C` the Potency was inconclusive: 2.82 µM [activator, partial curve, poor fit].
